At least one compound was matched to its structure with a doubt left. Some entries share one result that the patent states for a list of compounds.
Test system: mice with CCl4-induced chronic liver injury
Experiment: CCl4-induced chronic liver injury in mice
Format: in vivo
Description: SPF-grade male C57BL/6 mice were randomly divided into 5 groups, 12 mice in each group. The groups were a control group, a model group, a silibinin group (positive control group), a TFFCL low-dose group, and a TFFCL high-dose group. In addition to the control group, mice in the model group, positive control group, TFFCL low-dose group, and TFFCL high-dose group were intraperitoneally injected with 20% CCl4 (CCl4: olive oil=1:4, 2 mL/kg); mice in the control group were intraperitoneally injected with an equal amount of olive oil solution. Each group was injected twice a week for 6 weeks. The silibinin and TFFCL were separately suspended in 0.5% CMC-Na solution. The silibinin group, TFFCL-L group (low-dose), and TFFCL-H group (high-dose) were administered silibinin 100 mg/kg, TFFCL 20 mg/kg, and TFFCL 40 mg/kg by gavage, respectively; while the control group and the model group were intragastrically administered the same amount of 0.5% CMC-Na solution. Each group was given continuous intragastric administration once a day for 6 weeks. During the animal feeding, the body weight of mice was monitored and recorded weekly; 16 h after the last administration in the 6th week, blood was collected from the orbit of the mice, the liver and spleen of the mice were weighed and photographed, and wet weights of the liver and spleen were recorded. The organ index was calculated (organ index=organ mass/body mass×100%).

`COc1cc(C2Oc3cc([C@H]4Oc5cc(O)cc(O)c5C(=O)[C@@H]4O)ccc3OC2CO)ccc1O` (stereo partly shown) [Positive group, silibinin] was tested. Which “liver tissue oxidation indexes vs model group” value (TFFCL group and positive drug group, P<0.05) did it give?
The value was “could improve”.

And the “levels of TNF-α, IL-1β, and IL-6 in serum vs model group” value (positive group (silibinin 100 mg/kg) and TFFCL-H group (40 mg/kg), P<0.05)?
Its value is “could reduce”.

What about the “liver appearance vs model group” value (positive group and TFFCL administration groups) of the same compound?
The value was “improved to varying degrees”.

What about the “collagen fiber formation in liver tissue sections (Masson staining)” value (positive group, TFFCL low-dose and high-dose groups) of the same compound?
The value was “lighter than those in the model group”.

What about the “positive area of collagen fibers in the liver (Masson staining)” value (silibinin 100 mg/kg, TFFCL 20 and 40 mg/kg, model group 9.52%, blank group 1.01%) of the same compound?
The value was “less than 3.47%”.

What about the “degeneration, necrosis, and inflammatory cell infiltration of liver cells (HE staining)” value (silibinin 100 mg/kg, TFFCL 20 and 40 mg/kg, vs model group) of the same compound?
The value was “significantly improved”.

What about the “organ indexes of the liver and spleen vs model group” value (silibinin 100 mg/kg, each TFFCL administration group, P<0.05) of the same compound?
The value was “significantly reduced”.
